Data as given in paper PMC12362587, “Untargeted Diversity-Oriented Synthesis for the Discovery of New Antitumor Agents: An Integrated Approach of Inverse Virtual Screening, Bioinformatics, and Omics for Target Deconvolution” (Journal of Medicinal Chemistry, 2025).

Legend:
[1] = test system: A375 cells; assay: Untargeted metabolomics; type: cell-based, human; settings: A375, 2.5 μM, 72 h; p-value < 0.05 and FC > ±2
[2] = test system: A375 cells; assay: Untargeted lipidomics; type: cell-based, human; settings: A375, 2.5 μM, 72 h, vs ctrl

Compound | number of differentially abundant metabolites [1] | number of differentially modulated lipids [2]
CC(C)C[C@H]1C(=O)N(Cc2ccc(C(F)(F)F)cc2)c2ccccc2C(=O)N1Cc1ccc(C(F)(F)F)cc1 [Compound 31, (S)-3-Isobutyl-1,4-bis(4-(trifluoromethyl)benzyl)-3,4-dihydro-1H-benzo[e][1,4]diazepine-2,5-dione] | 47 | 49
CC(C)C[C@@H](C(=O)OCc1ccccc1)N1Cc2ccccc2NC1=O [Compound 63, Benzyl (S)-4-Methyl-2-(2-oxo-1,4-dihydroquinazolin-3(2H)-yl)pentanoate] | 23 | 74
